Source: PubChem BioAssay AID504784 (Drosophila RNAi Screening Center, 2011)
The screen tested about 17,000 reagents; this is an unselected part of those with a known target gene and a result. 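Each column is one replicate's B-score; the combined score over replicates was not deposited, so single values may mislead.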 The numbers tell different reagents against one gene apart. A plus sign joins genes that one reagent is predicted to hit.

Test: 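Genome-wide knock-down for genes giving too much or too little stored lipid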 (primary screen)
System: Drosophila Kc167 embryonic cells
Reagents: long dsRNA against Drosophila genes, about 250 ng dsRNA per well
Timing: 4 days
Challenge: cells fed 400 µM oleic acid bound to BSA
Measurement: 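Cells imaged and segmented; ratio of lipid droplet area to nuclear area, log-transformed, then normalised as a B-score over the screen; higher means more stored lipid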
Scale: droplet/nuclear area B-score: higher = more stored lipid (overstorage)

{"gene": "CG15695", "reagent no.": 1, "droplet/nuclear area B-score, replicate 1": 4.32, "droplet/nuclear area B-score, replicate 2": -0.0641}
{"gene": "CG30357", "reagent no.": 1, "droplet/nuclear area B-score, replicate 1": 0.141, "droplet/nuclear area B-score, replicate 2": 0.801}
{"gene": "Ilk (Integrin linked kinase)", "reagent no.": 1, "droplet/nuclear area B-score, replicate 1": -0.0169, "droplet/nuclear area B-score, replicate 2": 2.47}
{"gene": "Coa8 (Cytochrome c oxidase assembly factor 8)", "reagent no.": 1, "droplet/nuclear area B-score, replicate 1": -1.28, "droplet/nuclear area B-score, replicate 2": 0.168}
{"gene": "CecC (Cecropin C)", "reagent no.": 1, "droplet/nuclear area B-score, replicate 1": 0.248, "droplet/nuclear area B-score, replicate 2": 0.088}
{"gene": "GAPcenA (GTPase activating protein and centrosome-associated)", "reagent no.": 1, "droplet/nuclear area B-score, replicate 1": 0.205, "droplet/nuclear area B-score, replicate 2": -0.982}
{"gene": "DMAP1 (DNA methyltransferase 1 associated protein 1)", "reagent no.": 1, "droplet/nuclear area B-score, replicate 1": 2.64, "droplet/nuclear area B-score, replicate 2": 2.09}
{"gene": "CG9008", "reagent no.": 1, "droplet/nuclear area B-score, replicate 1": 0.584, "droplet/nuclear area B-score, replicate 2": 0.921}
{"gene": "beta-PheRS (Phenylalanyl-tRNA synthetase, beta-subunit)", "reagent no.": 1, "droplet/nuclear area B-score, replicate 1": -0.28, "droplet/nuclear area B-score, replicate 2": 1.05}
{"gene": "CG32374", "reagent no.": 1, "droplet/nuclear area B-score, replicate 1": 0.00516, "droplet/nuclear area B-score, replicate 2": 0.296}
{"gene": "Trf (TBP-related factor)", "reagent no.": 1, "droplet/nuclear area B-score, replicate 1": 0.185, "droplet/nuclear area B-score, replicate 2": -0.319}
{"gene": "CG15253", "reagent no.": 1, "droplet/nuclear area B-score, replicate 1": 0.402, "droplet/nuclear area B-score, replicate 2": 0.628}
{"gene": "ng2 (new glue 2)", "reagent no.": 1, "droplet/nuclear area B-score, replicate 1": -1.53, "droplet/nuclear area B-score, replicate 2": 0.268}
{"gene": "CG11247", "reagent no.": 1, "droplet/nuclear area B-score, replicate 1": 0.531, "droplet/nuclear area B-score, replicate 2": -0.0465, "droplet/nuclear area B-score, replicate 3": -0.0707}
{"gene": "CG11247", "reagent no.": 2, "droplet/nuclear area B-score, replicate 1": 0.023, "droplet/nuclear area B-score, replicate 2": 0.276}
{"gene": "Pgant3 (Polypeptide N-Acetylgalactosaminyltransferase 3)", "reagent no.": 1, "droplet/nuclear area B-score, replicate 1": 0.47, "droplet/nuclear area B-score, replicate 2": 0.337}
{"gene": "Arpc4 (Actin-related protein 2/3 complex, subunit 4)", "reagent no.": 1, "droplet/nuclear area B-score, replicate 1": 1.09, "droplet/nuclear area B-score, replicate 2": 0.0371}
{"gene": "Lsd-1 (Lipid storage droplet-1)", "reagent no.": 1, "droplet/nuclear area B-score, replicate 1": -1.67, "droplet/nuclear area B-score, replicate 2": -0.323}
{"gene": "Uch-L5 (Ubiquitin carboxy-terminal hydrolase L5)", "reagent no.": 1, "droplet/nuclear area B-score, replicate 1": -0.471, "droplet/nuclear area B-score, replicate 2": -0.328}
{"gene": "rump (rumpelstiltskin)", "reagent no.": 1, "droplet/nuclear area B-score, replicate 1": -0.0627, "droplet/nuclear area B-score, replicate 2": 8.42}
{"gene": "NitFhit (Nitrilase and fragile histidine triad fusion protein)", "reagent no.": 1, "droplet/nuclear area B-score, replicate 1": -0.917, "droplet/nuclear area B-score, replicate 2": 0.0263}
{"gene": "Prp39 (pre-mRNA processing factor 39)", "reagent no.": 1, "droplet/nuclear area B-score, replicate 1": 0.568}
{"gene": "CG18731", "reagent no.": 1, "droplet/nuclear area B-score, replicate 1": 0.448, "droplet/nuclear area B-score, replicate 2": 0.398}
{"gene": "Lap1", "reagent no.": 1, "droplet/nuclear area B-score, replicate 1": 1.09, "droplet/nuclear area B-score, replicate 2": -0.539}
{"gene": "CG12204", "reagent no.": 1, "droplet/nuclear area B-score, replicate 1": 0.321, "droplet/nuclear area B-score, replicate 2": 1.25}
{"gene": "Cyp6a2 (Cytochrome P450 6a2)", "reagent no.": 1, "droplet/nuclear area B-score, replicate 1": -0.284, "droplet/nuclear area B-score, replicate 2": -0.185}
{"gene": "CG32488", "reagent no.": 1, "droplet/nuclear area B-score, replicate 1": 1.34, "droplet/nuclear area B-score, replicate 2": 0.947}
{"gene": "CG32488", "reagent no.": 2, "droplet/nuclear area B-score, replicate 1": 2.03, "droplet/nuclear area B-score, replicate 2": -0.0814}
{"gene": "CG34229", "reagent no.": 1, "droplet/nuclear area B-score, replicate 1": 1.75, "droplet/nuclear area B-score, replicate 2": -0.429}
{"gene": "CG6294 + CG6299", "reagent no.": 1, "droplet/nuclear area B-score, replicate 1": 1.12, "droplet/nuclear area B-score, replicate 2": -1.44}
{"gene": "Pat1 (Protein interacting with APP tail-1)", "reagent no.": 1, "droplet/nuclear area B-score, replicate 1": 2.26, "droplet/nuclear area B-score, replicate 2": 0.567, "droplet/nuclear area B-score, replicate 3": 0.773}
{"gene": "CG5359", "reagent no.": 1, "droplet/nuclear area B-score, replicate 1": 0.197, "droplet/nuclear area B-score, replicate 2": 0.782}
{"gene": "Socs44A (Suppressor of Cytokine Signaling at 44A)", "reagent no.": 1, "droplet/nuclear area B-score, replicate 1": 0.7, "droplet/nuclear area B-score, replicate 2": 0.222}
{"gene": "CG14629", "reagent no.": 1, "droplet/nuclear area B-score, replicate 1": 1.76, "droplet/nuclear area B-score, replicate 2": 2.13}
{"gene": "Ir54a + sub", "reagent no.": 1, "droplet/nuclear area B-score, replicate 1": 1.58, "droplet/nuclear area B-score, replicate 2": 0.00884}
{"gene": "Gasp", "reagent no.": 1, "droplet/nuclear area B-score, replicate 1": -0.738, "droplet/nuclear area B-score, replicate 2": 1.1}
{"gene": "Tdg (Thymine DNA glycosylase)", "reagent no.": 1, "droplet/nuclear area B-score, replicate 1": 0.689, "droplet/nuclear area B-score, replicate 2": 0.416}
{"gene": "Tdg (Thymine DNA glycosylase)", "reagent no.": 2, "droplet/nuclear area B-score, replicate 1": -1.19, "droplet/nuclear area B-score, replicate 2": -0.0305}
{"gene": "timeout", "reagent no.": 1, "droplet/nuclear area B-score, replicate 1": 0.411, "droplet/nuclear area B-score, replicate 2": 0.0553}
{"gene": "timeout", "reagent no.": 2, "droplet/nuclear area B-score, replicate 1": 0.489, "droplet/nuclear area B-score, replicate 2": -1.04}
{"gene": "timeout", "reagent no.": 3, "droplet/nuclear area B-score, replicate 1": -1.56, "droplet/nuclear area B-score, replicate 2": -2.63}
{"gene": "timeout", "reagent no.": 4, "droplet/nuclear area B-score, replicate 1": -1.4, "droplet/nuclear area B-score, replicate 2": -0.0623}
{"gene": "timeout", "reagent no.": 5, "droplet/nuclear area B-score, replicate 1": -2.1, "droplet/nuclear area B-score, replicate 2": 3.89}
{"gene": "timeout", "reagent no.": 6, "droplet/nuclear area B-score, replicate 1": 0.154, "droplet/nuclear area B-score, replicate 2": 0.435}
{"gene": "sing (singles bar)", "reagent no.": 1, "droplet/nuclear area B-score, replicate 2": 1.67}
{"gene": "CG31089", "reagent no.": 1, "droplet/nuclear area B-score, replicate 1": 1.18, "droplet/nuclear area B-score, replicate 2": -0.195}
{"gene": "trbl (tribbles)", "reagent no.": 1, "droplet/nuclear area B-score, replicate 1": -2.03, "droplet/nuclear area B-score, replicate 2": -0.0354}
{"gene": "CG8892", "reagent no.": 1, "droplet/nuclear area B-score, replicate 1": 0.676, "droplet/nuclear area B-score, replicate 2": -0.421}
{"gene": "tsg (twisted gastrulation)", "reagent no.": 1, "droplet/nuclear area B-score, replicate 1": -0.189, "droplet/nuclear area B-score, replicate 2": 0.18, "droplet/nuclear area B-score, replicate 3": -0.295}
{"gene": "Ant2 (Adenine nucleotide translocase 2)", "reagent no.": 1, "droplet/nuclear area B-score, replicate 1": 0.384, "droplet/nuclear area B-score, replicate 2": -1.42, "droplet/nuclear area B-score, replicate 3": 0.0679}
{"gene": "Rbcn-3B (Rabconnectin-3B)", "reagent no.": 1, "droplet/nuclear area B-score, replicate 1": 0.0169, "droplet/nuclear area B-score, replicate 2": -0.151}
